{
  "source": "paper PMC5767185",
  "about": "“Arabidopsis G-Protein β Subunit AGB1 Interacts with BES1 to Regulate Brassinosteroid Signaling and Cell Elongation” (Frontiers in Plant Science, 2017)",
  "binders": {"B1": {"name": "GAL4 AD fused to full-length AGB1 (AD-AGB1) (protein, UniProt P49177 1-377)", "chain": "MSVSELKERHAVATETVNNLRDQLRQRRLQLLDTDVARYSAAQGRTRVSFGATDLVCCRTLQGHTGKVYSLDWTPERNRIVSASQDGRLIVWNALTSQKTHAIKLPCAWVMTCAFSPNGQSVACGGLDSVCSIFSLSSTADKDGTVPVSRMLTGHRGYVSCCQYVPNEDAHLITSSGDQTCILWDVTTGLKTSVFGGEFQSGHTADVLSVSISGSNPNWFISGSCDSTARLWDTRAASRAVRTFHGHEGDVNTVKFFPDGYRFGTGSDDGTCRLYDIRTGHQLQVYQPHGDGENGPVTSIAFSVSGRLLFAGYASNNTCYVWDTLLGEVVLDLGLQQDSHRNRISCLGLSADGSALCTGSWDSNLKIWAFGGHRRVI"}},
  "test_in_all_cases": "two-hybrid; GAL4 system, pGBKT7 baits (BES1 and deletions) and pGADT7 prey (AGB1) in strain AH109; growth on SD-T-L-H-A plates, 5 days",
  "key": {"BD-BES1ΔC (Arabidopsis)": {"target": "BD-BES1ΔC (Arabidopsis)"}, "BD-BES1ΔN (Arabidopsis)": {"target": "BD-BES1ΔN (Arabidopsis)"}, "[1]": {"target": "BD-BES1ΔNLS (Arabidopsis)"}, "BD-BES1ΔP (Arabidopsis)": {"target": "BD-BES1ΔP (Arabidopsis)"}, "[2]": {"target": "BD-BES1ΔPEST (Arabidopsis)"}},
  "note": "No constants are given. Whether binding was seen depends on the method and setting. For some assays here: Binding can be weak; no strength is given. Tags and fused reporters may be left off the sequences shown.",
  "data": [
    {"binder": "B1", "values": [
      {"measurement": "binding", "setting": "BD-BES1ΔC (Arabidopsis)", "value": "binds"},
      {"measurement": "binding", "setting": "BD-BES1ΔN (Arabidopsis)", "value": "binds"},
      {"measurement": "binding", "setting": "[1]", "value": "binds"},
      {"measurement": "binding", "setting": "BD-BES1ΔP (Arabidopsis)", "value": "no binding"},
      {"measurement": "binding", "setting": "[2]", "value": "no binding"}
    ]}
  ]
}
